# This is one part of the list.
# Experiments:
# Experiment in all cases: glycan array binding signal (z-score within array); higher = stronger binding
# Details in all cases: glycan notation: IUPAC condensed, linker removed
# [1] = target: Fuc(a1-2)[Gal(a1-3)]Gal(b1-4)GlcNAc(b1-2)Man(a1-3)[Fuc(a1-2)[Gal(a1-3)]Gal(b1-4)GlcNAc(b1-2)Man(a1-6)]Man(b1-4)GlcNAc(b1-4)GlcNAc
# Method in brief: (§1)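 Glycan array data were curated from 3228 arrays in the Consortium for Functional Glycomics database and kept only where the protein sequence was available. Glycan names were converted to IUPAC-condensed notation, and columns mapping to the same glycan were averaged. The binding signal is a within-array Z-score, averaged across arrays of the same protein sequence at different concentrations or buffers and across linkers. Negative Z-scores can be read as non-binding.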
# [2] = target: Fuc(a1-2)[Gal(a1-3)]Gal(b1-4)GlcNAc(b1-2)Man(a1-3)[Fuc(a1-2)[Gal(a1-3)]Gal(b1-4)GlcNAc(b1-2)Man(a1-6)]Man(b1-4)GlcNAc(b1-4)[Fuc(a1-6)]GlcNAc
# Method in brief: as §1
# [3] = target: Fuc(a1-2)[Gal(a1-3)]Gal(b1-4)GlcNAc(b1-3)GalNAc
# Method in brief: as §1
# [4] = target: Fuc(a1-2)[Gal(a1-3)]Gal(b1-4)GlcNAc(b1-6)GalNAc
# Method in brief: as §1
# [5] = target: Fuc(a1-2)[Gal(a1-3)]Gal(b1-4)[Fuc(a1-3)]Glc
# Method in brief: as §1
# [6] = target: Fuc(a1-2)[Gal(a1-3)]Gal(b1-4)[Fuc(a1-3)]GlcNAc
# Method in brief: as §1
# [7] = target: Fuc(a1-2)[Gal(a1-3)]Gal(b1-4)[Fuc(a1-3)]GlcNAc(b1-3)GalNAc
# Method in brief: as §1
# [8] = target: Fuc(a1-2)[Gal(a1-4)]Gal(b1-4)GlcNAc
# Method in brief: as §1
# [9] = target: Fuc(a1-2)[GalNAc(a1-3)]Gal
# Method in brief: as §1
# [10] = target: Fuc(a1-2)[GalNAc(a1-3)]Gal(b1-3)GalNAc(a1-3)[Fuc(a1-2)]Gal(b1-4)GlcNAc
# Method in brief: as §1
# [11] = target: Fuc(a1-2)[GalNAc(a1-3)]Gal(b1-3)GalNAc(b1-3)Gal(a1-4)Gal(b1-4)Glc
# Method in brief: as §1
# [12] = target: Fuc(a1-2)[GalNAc(a1-3)]Gal(b1-3)GlcNAc
# Method in brief: as §1
# [13] = target: Fuc(a1-2)[GalNAc(a1-3)]Gal(b1-3)GlcNAc(b1-2)Man(a1-3)[Fuc(a1-2)[GalNAc(a1-3)]Gal(b1-3)GlcNAc(b1-2)Man(a1-6)]Man(b1-4)GlcNAc(b1-4)GlcNAc
# Method in brief: as §1
# [14] = target: Fuc(a1-2)[GalNAc(a1-3)]Gal(b1-3)GlcNAc(b1-2)Man(a1-3)[Fuc(a1-2)[GalNAc(a1-3)]Gal(b1-3)GlcNAc(b1-2)Man(a1-6)]Man(b1-4)GlcNAc(b1-4)[Fuc(a1-6)]GlcNAc
# Method in brief: as §1
# [15] = target: Fuc(a1-2)[GalNAc(a1-3)]Gal(b1-3)GlcNAc(b1-3)GalNAc
# Method in brief: as §1
# [16] = target: Fuc(a1-2)[GalNAc(a1-3)]Gal(b1-3)GlcNAc(b1-6)GalNAc
# Method in brief: as §1
# [17] = target: Fuc(a1-2)[GalNAc(a1-3)]Gal(b1-4)Glc
# Method in brief: as §1
# [18] = target: Fuc(a1-2)[GalNAc(a1-3)]Gal(b1-4)GlcNAc
# Method in brief: as §1
# [19] = target: Fuc(a1-2)[GalNAc(a1-3)]Gal(b1-4)GlcNAc(b1-2)Man
# Method in brief: as §1
# [20] = target: Fuc(a1-2)[GalNAc(a1-3)]Gal(b1-4)GlcNAc(b1-2)Man(a1-3)[Fuc(a1-2)[GalNAc(a1-3)]Gal(b1-4)GlcNAc(b1-2)Man(a1-6)]Man(b1-4)GlcNAc(b1-4)GlcNAc
# Method in brief: as §1
# [21] = target: Fuc(a1-2)[GalNAc(a1-3)]Gal(b1-4)GlcNAc(b1-2)Man(a1-3)[Fuc(a1-2)[GalNAc(a1-3)]Gal(b1-4)GlcNAc(b1-2)Man(a1-6)]Man(b1-4)GlcNAc(b1-4)[Fuc(a1-6)]GlcNAc
# Method in brief: as §1
# [22] = target: Fuc(a1-2)[GalNAc(a1-3)]Gal(b1-4)GlcNAc(b1-3)Gal(b1-4)GlcNAc
# Method in brief: as §1
# [23] = target: Fuc(a1-2)[GalNAc(a1-3)]Gal(b1-4)GlcNAc(b1-3)Gal(b1-4)GlcNAc(b1-3)Gal(b1-4)GlcNAc
# Method in brief: as §1
# [24] = target: Fuc(a1-2)[GalNAc(a1-3)]Gal(b1-4)GlcNAc(b1-3)GalNAc
# Method in brief: as §1
# [25] = target: Fuc(a1-2)[GalNAc(a1-3)]Gal(b1-4)GlcNAc(b1-3)[Fuc(a1-2)[GalNAc(a1-3)]Gal(b1-4)GlcNAc(b1-6)]GalNAc
# Method in brief: as §1
# [26] = target: Fuc(a1-2)[GalNAc(a1-3)]Gal(b1-4)GlcNAc(b1-6)GalNAc
# Method in brief: as §1
# [27] = target: Fuc(a1-2)[GalNAc(a1-3)]Gal(b1-4)[Fuc(a1-3)]GlcNAc
# Method in brief: as §1
# [28] = target: Fuc(a1-2)[GalNAc(a1-3)]Gal(b1-4)[Fuc(a1-3)]GlcNAc(b1-3)GalNAc
# Method in brief: as §1
# [29] = target: Fuc(a1-2)[GalNAc(a1-4)]Gal(b1-4)GlcNAc
# Method in brief: as §1
# [30] = target: Fuc(a1-2)[GalNAc(b1-3)]Gal
# Method in brief: as §1
binder,measurement,setting,value
"Protein L(A-C2) (Finegoldia magna), Q51912 (protein) ADEPIDLEKLEEKRDKENVGNLPKFDNEVKDGSENPMAKYPDFDDEASTRFETENNEFEEKKVVSDNFFDQSEHPFVENKEETPETPETDSEEEVTIKANLIFANGSTQTAEFKGTFEKATSEAYAYADTLKKDNGEYTVDVADKGYTLNIKFAGKEKTPEEPKEEVTIKANLIYADGKTQTAEFKGTFEEATAEAYRYADALKKDNGEYTVDVADKGYTLNIKFAGKEKTPEEPKEEVTIKANLIYADGKTQTAEFKGTFEEATAEAYRYADLLAKENGKYTVDVADKGYTLNIKFAGKEKTPEEPKEEVTIKANLIYADGKTQTAEFKGTFAEATAEAYRYADLLAKENGKYTADLEDGGYTINIRFAGKKVDEKPEEKEQVTIKENIYFEDGTVQTATFKGTFAEATAEAYRYADLLSKEHGKYTADLEDGGYTINIRFAGKEEPEETPEKPEVQDGYASYEEAEAAAKEALKNDDVNKSYTIRQGADGRYYYVLSPVEAEEEKPEAQNGYATYEEAEAAAKKALENDPINKSYSIRQGADGRYYYVLSPVEAE",glycan array binding signal (z-score),[1],0.179
same,glycan array binding signal (z-score),[2],0.994
same,glycan array binding signal (z-score),[3],6.17
same,glycan array binding signal (z-score),[4],-0.631
same,glycan array binding signal (z-score),[5],-0.668
same,glycan array binding signal (z-score),[6],1.92
same,glycan array binding signal (z-score),[7],1.74
same,glycan array binding signal (z-score),[8],-0.541
same,glycan array binding signal (z-score),[9],-0.96
same,glycan array binding signal (z-score),[10],-0.447
same,glycan array binding signal (z-score),[11],-0.93
same,glycan array binding signal (z-score),[12],-0.763
same,glycan array binding signal (z-score),[13],-0.22
same,glycan array binding signal (z-score),[14],-0.611
same,glycan array binding signal (z-score),[15],0.96
same,glycan array binding signal (z-score),[16],-0.499
same,glycan array binding signal (z-score),[17],-0.792
same,glycan array binding signal (z-score),[18],-0.631
same,glycan array binding signal (z-score),[19],-0.555
same,glycan array binding signal (z-score),[20],0.913
same,glycan array binding signal (z-score),[21],0.519
same,glycan array binding signal (z-score),[22],-0.566
same,glycan array binding signal (z-score),[23],1.09
same,glycan array binding signal (z-score),[24],-0.485
same,glycan array binding signal (z-score),[25],0.896
same,glycan array binding signal (z-score),[26],-1.04
same,glycan array binding signal (z-score),[27],3.52
same,glycan array binding signal (z-score),[28],1.92
same,glycan array binding signal (z-score),[29],0.129
same,glycan array binding signal (z-score),[30],-0.856

# Reprinted at random: 2 entries already listed
binder,measurement,setting,value
"Protein L(A-C2) (Finegoldia magna), Q51912 (protein) ADEPIDLEKLEEKRDKENVGNLPKFDNEVKDGSENPMAKYPDFDDEASTRFETENNEFEEKKVVSDNFFDQSEHPFVENKEETPETPETDSEEEVTIKANLIFANGSTQTAEFKGTFEKATSEAYAYADTLKKDNGEYTVDVADKGYTLNIKFAGKEKTPEEPKEEVTIKANLIYADGKTQTAEFKGTFEEATAEAYRYADALKKDNGEYTVDVADKGYTLNIKFAGKEKTPEEPKEEVTIKANLIYADGKTQTAEFKGTFEEATAEAYRYADLLAKENGKYTVDVADKGYTLNIKFAGKEKTPEEPKEEVTIKANLIYADGKTQTAEFKGTFAEATAEAYRYADLLAKENGKYTADLEDGGYTINIRFAGKKVDEKPEEKEQVTIKENIYFEDGTVQTATFKGTFAEATAEAYRYADLLSKEHGKYTADLEDGGYTINIRFAGKEEPEETPEKPEVQDGYASYEEAEAAAKEALKNDDVNKSYTIRQGADGRYYYVLSPVEAEEEKPEAQNGYATYEEAEAAAKKALENDPINKSYSIRQGADGRYYYVLSPVEAE",glycan array binding signal (z-score),[4],-0.631
same,glycan array binding signal (z-score),[17],-0.792

# — the supplement of paper PMC8728848
